Percent effect of library compounds

From ChEMBL document CHEMBL3988442, “University of Dundee, Small-Polar-MMV Screening Library” (2021).

A: 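Phenotypic screen: M. tuberculosis growth, glucose 7H9 medium, 3 days; the read-out is not stated. Tested at 50 µM. Higher reads as more growth inhibition (inferred: compounds with an IC50 in retests scored well above the rest). Of about 69,000 compounds tested this way, about 760 (1.1%) reached 50% or more in at least one test.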
B: 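Growth of Mycobacterium tuberculosis over 4 days (cholesterol / DPPC medium with tyloxapol); the read-out is not stated. Compounds at 50 µM. Direction is inferred from retests: higher values go with more growth inhibition. About 69,000 compounds were tested under these conditions; 0.54% (about 370) showed 50% or more at least once.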

Results are given as percent effect. The controls that fix the scale are not given in the record; negative values are as filed. The compounds are a random part of those screened. Two or more numbers in one place are separate tests of the same structure; such repeats can differ widely.

SMILES,A,B
Cc1ncc(CN(C)C(=O)c2ccc3c(c2O)OC(C)(C)C3)s1,1.098 and 0.658,4.888
O=C1CCc2cc(-c3csc(CCN4CCOC4=O)n3)ccc2N1,12,-5.504
OC[C@H]1CCN(Cc2ccc3ccccc3n2)C[C@@H]1O,-2.212,-2.163 and 22.21
COc1ccc(CCc2nnc(NC(=O)C3CC34CCC4)s2)cc1OC (stereo not given),-23.56,-0.5443 and 6.127
CN(C)c1cccc(C(=O)N2CCn3c(nnc3-c3ccccc3)C2)c1,0.4006,-5.031
Cc1nc(CN2CCCC23CCN(c2nc4ccccc4s2)CC3)co1,5.062,2.399
Cn1c(SCc2noc(C(C)(C)C)n2)nnc1C1CCS(=O)(=O)C1 (stereo not given),-0.3438 and 6.627,-6.928
CN(C)C[C@H]1C[C@@H](CO)CN(C(=O)CCc2nc(Cl)n[nH]2)C1,-48.07,-30.61
CCOC(=O)CCNC(=O)c1cccc2ccc(C)nc12,-35.56,-21.55
Cn1cnnc1C1CCN(C(=O)c2cc(-c3ccccc3)on2)CC1,-11.7,-25.88
CCCNC(=O)Cn1cc(-c2ccccc2)cn1,-5.026,-12.1
Cc1cc(CN(CC(N)=O)CC(C)C)on1,-4.725 and -8.937,-25.32
CCC(NC1Cc2ccccc2C1)c1ccc(S(C)(=O)=O)cc1 (stereo not given),-3.877 and -4.866,-15.03
CC(C)COC(C)C(=O)NCc1ccccc1 (stereo not given),3.013,21.82
COc1cc(CN2CCCC2c2cccc(F)c2)cc(OC)c1OC (stereo not given),-7.155,0.3119
CN(Cc1ccncc1)C(=O)c1ccc2c(c1O)OC(C)(C)C2,1.924 and -10.15,-10.67
CCOCC1CN(C2CCCC2)Cc2cnn(CC3CCOCC3)c21.O=C(O)C(F)(F)F.O=C(O)C(F)(F)F (stereo not given),20.29,4.273
Cc1ncc(CN(C)c2nc3c(cnn3C(C)(C)C)c(=O)[nH]2)s1,-23.87,9.227
O=S1(=O)CCC(n2cc(C3=CCN(CCc4ccccc4)CC3)cn2)C1 (stereo not given),17.91,11.08
O=C(O)C(F)(F)F.[H][C@@]12OCCN(c3ncc(F)cn3)[C@@]1([H])CC[C@H]2OCCN1CCCC1,-45.45,3.773
CC(=O)c1ccc(Cl)c(Cl)c1OCC(=O)NCC(F)(F)F,-17.15,-26.16
CCn1nc(C)c(CCNC(=O)C2CCCN(C(=O)N(C)C)C2)c1C (stereo not given),-46.94,-6.835
Cc1nccn1-c1ccc(=O)n(CCNC(=O)c2c(F)cccc2Cl)n1,-10.18,0.8777
CNC(=O)NC(=O)CN(Cc1ccc(C#N)cc1)Cc1cccc(F)c1,3.493,-4.294
COCCn1ccnc1C1CCCN(C(=O)CSc2nnc(C)o2)C1 (stereo not given),-24.34,-13.93
O=C(O)c1cc(-c2cncnc2)cc(S(=O)(=O)N2CCCCCC2)c1,-41.9,-50.33
COC(=O)CN1CCSC(c2ccccc2)C1 (stereo not given),15.4,-8.945
O=C(NCc1cccs1)c1nc2c(o1)CN(CC1CC1)C2.O=C(O)C(F)(F)F,-1.579 and -8.926,-4.987
CC(C)[C@H](NS(C)(=O)=O)C(=O)NCc1cc(-c2cccc(Cl)c2)nn1C,2.669,-7.652
CN(C)c1nc(-c2ccncc2)nc2c1CCN(C(=O)[C@H](N)CO)C2,20.16 and 0.5071,-10.13
CCc1ncc(C(=O)N2CCCCC2Cn2cccn2)s1 (stereo not given),11.07,-0.1792
COc1ccc2c(OCC(=O)NC(C)(C)C)ccnc2c1,-16.2,13.55
CCn1c(N)nc2cc(C(=O)N3Cc4ccccc4C3)cnc21,28.23,1.043
O=C(O)C(F)(F)F.[H][C@@]12CCN(C(=O)CC3CC3)C[C@]1(COc1ncccc1F)CCO2,18.53 and 10.09,5.366 and 2.687
Cc1ccc(S(=O)(=O)NC(=O)CCc2ccco2)cc1N(C)C,-1.988 and -5.28,-25.23
N#Cc1ccc(N2CC3(CCN(c4nccs4)C3)C2)nc1.O=CO.O=CO,-33.38 and 2.179,7.198
CCN1CCC(NC(=O)NCC(O)c2ccc(Cl)c(F)c2)CC1 (stereo not given),0.04573,14.87
COCC(C)(CCO)NC(=O)Nc1cccc(F)c1C (stereo not given),17.13,-4.907
Cc1nc(CSCCC(=O)NCc2ccncc2)cs1,12.13 and -3.407,-4.138
Cc1noc2nc(C3CCCN(Cc4cccnc4)C3)cc(C(F)F)c12 (stereo not given),4.61,4.607
O=C(c1ccsc1)N1CCN(CC(O)c2cccc(F)c2)CC1 (stereo not given),-28.09,-3.832
NCCn1nc(C2CCN(C(=O)Cc3ccccc3)C2)c2nccnc21 (stereo not given),27.04,58.99
CS(=O)(=O)c1cccc(C(N)c2ccc(Cl)cc2)c1 (stereo not given),10.85,6.655
Cc1cc(C)c2nc(CN3CCC(C#N)CC3)cc(O)c2c1,-7.359,1.946
CCCC(=O)NC(Cc1ccc(C)cc1)c1ccccn1 (stereo not given),5.792,8.793 and -8.121
CCn1c(CN2CCOC(Cn3cncn3)C2)nc2c(F)cccc21 (stereo not given),-3.858 and -29.91,-15.37
CCN(CC)C(=O)c1nnn(Cc2ccccc2)c1OC,15.65,10.23
Cc1cnn(CC2CCCCN2C(=O)c2csc(C)n2)c1 (stereo not given),-0.1824,-15.82
O=C(NC1CC1)N1CCc2ncnc(-c3ccncc3)c2CC1.O=C(O)C(F)(F)F,-60.86,-35.94
Cc1cc(NCCSc2nccn2C)n2nc(C)c(C)c2n1,39.1,5.629 and -0.161

The first 4 entries again:

Result for Cc1ncc(CN(C)C(=O)c2ccc3c(c2O)OC(C)(C)C3)s1 was A: 1.098% and 0.658%; B: 4.888%.
Result for O=C1CCc2cc(-c3csc(CCN4CCOC4=O)n3)ccc2N1 was A: 12%; B: -5.504%.
Result for OC[C@H]1CCN(Cc2ccc3ccccc3n2)C[C@@H]1O was A: -2.212%; B: -2.163% and 22.21%.
Result for COc1ccc(CCc2nnc(NC(=O)C3CC34CCC4)s2)cc1OC (stereo not given) was A: -23.56%; B: -0.5443% and 6.127%.